The values that follow come from article PMC8547954, “Myopalladin knockout mice develop cardiac dilation and show a maladaptive response to mechanical pressure overload” (eLife, 2021).

Results are given in words; binding and its absence hold for the method and conditions named. Binding can be weak; no strength is given.

In the assay the target is titin Ig domains Z4-Z5 in pGBKT7 DNA-BD (human). Description: two-hybrid; co-transformation of pGBKT7 DNA-BD and pGADT7 AD constructs into the Y2H Gold strain; SD/-Ade/-His/-Leu/-Trp with 120 ng/ml Aureobasidin A and 40 µg/ml X-alpha-Gal, 3-4 days at 30°C.

B1: PALLD C-terminal region (Res. 794-1123) in pGADT7 (domain or fragment, UniProt Q8WX93-9 794-1123)
chain: PFFEMKLKHYKIFEGMPVTFTCRVAGNPKPKIYWFKDGKQISPKSDHYTIQRDLDGTCSLHTTASTLDDDGNYTIMAANPQGRISCTGRLMVQAVNQRGRSPRSPSGHPHVRRPRSRSRDSGDENEPIQERFFRPHFLQAPGDLTVQEGKLCRMDCKVSGLPTPDLSWQLDGKPVRPDSAHKMLVRENGVHSLIIEPVTSRDAGIYTCIATNRAGQNSFSLELVVAAKEAHKPPVFIEKLQNTGVADGYPVRLECRVLGVPPPQIFWKKENESLTHSTDRVSMHQDNHGYICLLIQGATKEDAGWYTVSAKNEAGIVSCTARLDVYISRH
For B1, the binding entry is reported as “binds”.

B2: MYPN C-terminal region from residue 935 to 1320, containing its three C-terminal Ig domains (domain or fragment, UniProt Q86TC9-1 935-1320)
chain: DEIPTGKCIAPIFDKRLKHFRVTEGSPVTFTCKIVGIPVPKVYWFKDGKQISKRNEHCKMRREGDGTCSLHIESTTSDDDGNYTIMAANPQGRISCSGHLMVQSLPIRSRLTSAGQSHRGRSRVQERDKEPLQERFFRPHFLQAPGDMVAHEGRLCRLDCKVSGLPPPELTWLLNGQPVLPDASHKMLVRETGVHSLLIDPLTQRDAGTYKCIATNKTGQNSFSLELSVVAKEVKKAPVILEKLQNCGVPEGHPVRLECRVIGMPPPVFYWKKDNETIPCTRERISMHQDTTGYACLLIQPAKKSDAGWYTLSAKNEAGIVSCTARLDIYAQWHHQIPPPMSVRPSGSRYGSLTSKGLDIFSAFSSMESTMVYSCSSRSVVESDEL
For the molecule B2, the binding entry is given as “binds”.
